# Reference: PubChem BioAssay AID1224858 (National Center for Advancing Translational Sciences (NCATS), 2016)
# The shares of active, inactive and inconclusive entries below differ from those in the screen. Potencies of inconclusive entries are doubtful fits and often do not repeat. The source made the active and inactive calls. The call rests on the fitted dose curve; in most records, active means well fitted inhibition curve with a large enough effect; inconclusive means small, poorly fitted or top-dose-only effect; inactive means no such curve, though single readings can be large or run the other way.
# Assay: Confirmation assay for measurement of the activity of small molecule inhibitors on Zika virus induced Caspase-3 activity in human astrocytes
# Outline: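 Human astrocytes were pretreated 1 h with compound, then infected with ZIKV (2 FFU/cell) for 6 h at 37 C. Caspase-3/7 activity by Caspase-Glo luminescence; percent inhibition versus uninfected and infected wells.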
row,Structure (SMILES),Potency
1,CC(C(=O)O)c1ccc(C(=O)c2ccccc2)s1 (configuration not stated),active: 6.15 µM
2,Cc1cccc(C#Cc2ccccc2)n1,active: 6.15 µM
3,O=C1c2ccccc2C(=O)c2c1ccc(O)c2O,"inconclusive: 30.8 µM [inhibitor, single point]"
4,CC(=O)OC(C)OC(=O)C(C)c1ccc(-c2ccccc2)c(F)c1 (configuration not stated),"inconclusive: 21.8 µM [inhibitor, single point]"
5,CN(C)c1ccc(N=NS(=O)(=O)O)cc1,"inconclusive: 35.5 µM [inhibitor, partial curve]"
6,O=C(OCc1ccccc1)c1ccc(O)cc1,"inconclusive: 17.3 µM [inhibitor, partial curve]"
7,CN(C)c1ccc(/C=C2\C(=O)Nc3ccccc32)cc1,active: 8.69 µM
8,CN1CC(=O)N2C(Cc3c([nH]c4ccccc34)[C@H]2c2ccc3c(c2)OCO3)C1=O (some centres not stated),inactive
9,CC(=C(CCOC(=O)C(C)C)SSC(CCOC(=O)C(C)C)=C(C)N(C=O)Cc1cnc(C)nc1N)N(C=O)Cc1cnc(C)nc1N,inactive
10,CC(C(=O)O)c1ccc(-c2ccccc2)c(F)c1 (configuration not stated),"inconclusive: 30.8 µM [inhibitor, single point]"
11,O=c1[nH]nc(Sc2ncc([N+](=O)[O-])s2)n1-c1ccc2c(c1)OCCO2,"inconclusive: 1.73 µM [inhibitor, full curve, poor fit]"
12,Cc1oncc1C(=O)Nc1ccc(C(F)(F)F)cc1,active: 3.88 µM
13,[O-][n+]1ccccc1SSc1cccc[n+]1[O-],"inconclusive: 15.8 µM [inhibitor, partial curve, poor fit]"
14,Cc1c(N)c(=O)n(-c2ccccc2)n1C,inactive
15,CC(O)=C(C#N)C(=O)Nc1ccc(C(F)(F)F)cc1,active: 1.09 µM
16,CCCCCCOc1ccccc1C(N)=O,inactive
17,O=c1cc(-c2ccccc2)oc2cc(O)cc(O)c12,"inconclusive: 15.5 µM [inhibitor, partial curve]"
18,NC(=O)c1cccc2[nH]c(-c3ccc([C@H]4CCCN4)cc3F)nc12,active: 13.8 µM
19,Cc1nc(-c2ccc(OCC(C)C)c(C#N)c2)sc1C(=O)O,active: 2.18 µM
20,Cc1cc(O)c2ccccc2c1O,"inconclusive: 17.3 µM [inhibitor, partial curve]"
21,NC(N)=NN=C(/C=C/c1ccc([N+](=O)[O-])o1)/C=C/c1ccc([N+](=O)[O-])o1,inactive
22,O=C(Nc1ccc(C(=O)O)c(O)c1)c1ccccc1,active: 4.89 µM

# A draw from above in order of length of the SMILES, falling:
row,Structure (SMILES),Potency
21,NC(N)=NN=C(/C=C/c1ccc([N+](=O)[O-])o1)/C=C/c1ccc([N+](=O)[O-])o1,inactive
8,CN1CC(=O)N2C(Cc3c([nH]c4ccccc34)[C@H]2c2ccc3c(c2)OCO3)C1=O (some centres not stated),inactive
19,Cc1nc(-c2ccc(OCC(C)C)c(C#N)c2)sc1C(=O)O,active: 2.18 µM
